Assay results taken from PubChem BioAssay AID1347076 (National Center for Advancing Translational Sciences (NCATS), 2019).
The whole screen tested about 400,000 compounds, of which about 13,000 (3.2%) were called active. The inconclusive results got no clear call from the source; some entries with a clear call stand among them for comparison. Calls follow the shape of the dose curve; as a rule, active = well fitted cell-killing curve with a large enough effect; inconclusive = small, poorly fitted or top-dose-only effect, or effect the other way; inactive = flat fitted curve, though single readings scatter. Potencies of inconclusive entries are doubtful fits and often do not repeat.

Assay: qHTS assay for MDR1-selective chemotherapeutics: Primary screen using the drug-selected MDR subline cells KB-V1; also: nearly all actives have a fitted effect of over 60% in size
Settings: KB-V1 MDR cells viability, CellTiter-Glo, 72 h; activity change, negative = cytotoxicity: at 46.1 µM (top of the series)
Procedure, shortened: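 KB-V1, DMEM (no phenol red) + 10% FBS; cpd pin-transferred, titration series; 72 h, 37 degrees C; CellTiter-Glo, luminescence. Data normalized, curve-fit.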
% is scaled to controls: 0 for no effect and ±100 for the full control effect; potency is read from the fitted curve at half-maximal effect.

| SMILES | Potency | activity change, negative = cytotoxicity |
| --- | --- | --- |
| C=CCN1C(=O)c2ccccc2Sc2ccc(C(=O)N3CCN(C)CC3)cc21 | active: 9.2 µM |  |
| Cc1ccc(-c2nc3ccccc3[nH]2)cc1N | active: 10.3 µM |  |
| Cc1ccc(Cl)cc1N1CCN(C(=O)COc2ccc3c(c2)CCC3)CC1 | inactive |  |
| CC1CCN(C(=O)COc2ccc(Nc3ccccc3)cc2)CC1 | inconclusive: 16.4 µM [cytotoxic, partial curve] |  |
| O=C(CNC(=O)c1ccc(S(=O)(=O)N2CCCC2)cc1)N/N=C/c1ccc(Cl)cc1 | inconclusive: 18.4 µM [cytotoxic, partial curve, poor fit] |  |
| CC(C)(C)OC(=O)N1CCC[C@@H]1C(=O)NCc1ccccc1Cl | inconclusive: 16.4 µM [cytotoxic, partial curve] |  |
| CCCCN(C)CCCNC(=O)Cn1cc2c(n1)-c1c(oc(C(=O)N3CCCC3)c1C)CC2 | inconclusive: 29.1 µM [rising, single point] |  |
| CC(=O)c1cccc(NC(=O)COC(=O)Cc2ccc(Cl)cc2)c1 | inconclusive: 14.6 µM [rising, partial curve, poor fit] |  |
| C=CCOc1ccc(CNn2nnnc2N)cc1 | inconclusive: 14.6 µM [rising, partial curve, poor fit] |  |
| CNC(=S)Nc1ccc([N+](=O)[O-])c(C)c1 | inactive |  |
| CC(C)(C)c1nnc2sc(SCC(=O)c3ccc4c(c3)OCCO4)nn2c1=O | inconclusive: 18.4 µM [cytotoxic, single point] |  |
| COc1cc(/C=C/C(=O)O)cc(S(=O)(=O)NCCCO)c1OC | inconclusive: 16.4 µM [rising, single point] |  |
| CCCn1c(SC(C)C(=O)NCC2CCCO2)nc2sc3c(c2c1=O)CCC3 (stereo not given) | inactive |  |
| CCCCOc1ccccc1NC(=O)Cn1c(-c2cncs2)nc2ccccc21 | inactive |  |
| O=C(NCc1ccccc1F)C1CCCN1C(=O)Nc1cccc(F)c1 (stereo not given) |  | inconclusive: 8.63% |
| CCCS(=O)(=O)N1CCN(C(=O)c2cccc(OC)c2)CC1 | inconclusive: 20.6 µM [cytotoxic, single point] |  |
| CC(C)CN(C(=O)COC(=O)C1c2ccccc2Oc2ccccc21)C1CCS(=O)(=O)C1 (stereo not given) | inactive |  |
| Cc1cccc(Nc2nc(N)c([N+](=O)[O-])c(N3CCN(C)CC3)n2)c1 | inconclusive: 11.6 µM [cytotoxic, partial curve] |  |
| Nc1nc(CSc2nnnn2-c2ccccc2)nc(N2CCCc3ccccc32)n1 | inconclusive: 18.4 µM [cytotoxic, partial curve, poor fit] |  |
| COCCNC(=O)c1ccccc1NC(=O)COc1ccccc1 | inconclusive: 18.4 µM [cytotoxic, single point] |  |

As a working copy, some entries already given:

| SMILES | Potency | activity change, negative = cytotoxicity |
| --- | --- | --- |
| Cc1ccc(Cl)cc1N1CCN(C(=O)COc2ccc3c(c2)CCC3)CC1 | inactive |  |
| CC1CCN(C(=O)COc2ccc(Nc3ccccc3)cc2)CC1 | inconclusive: 16.4 µM [cytotoxic, partial curve] |  |
